US9937250B2, “Immunogenic tumor associated stromal cell antigen peptides and methods of their use” (University of Pittsburgh—Of the Commonwealth System of …, priority 2011, dated 2018)
At least one compound was matched to its structure with a doubt left.

Test system: advanced-stage melanoma
Assay: Planned Phase 2 trial of αDC1/TBVA peptide vaccine plus dasatinib in advanced-stage melanoma
Format: in vivo, human
Settings: melanoma patients, hypothesis of planned trial

Cc1nc(Nc2ncc(C(=O)Nc3c(C)cccc3Cl)s2)cc(N2CCN(CCO)CC2)n1 [dasatinib]
MDSC frequencies in PBMC: reduction in MDSC frequencies in PBMC
